These are yes or no findings as the source states them, for the method shown. Binding seen in cells or lysates may run through a third protein. Some results given as binding are weak or reduced against the parent protein; the word gives no strength. Sequences can lack the tags named with a protein.
Molecular target: BTN2A1-HA (human) (UniProt Q7KYR7)
Test: co-immunoprecipitation from co-transfected cells, IP anti-FLAG, western blot

Chains of the proteins cited; added tags and fusions are not shown. Residues count along the entry.
UniProt Q7KYR7, residues 29-527: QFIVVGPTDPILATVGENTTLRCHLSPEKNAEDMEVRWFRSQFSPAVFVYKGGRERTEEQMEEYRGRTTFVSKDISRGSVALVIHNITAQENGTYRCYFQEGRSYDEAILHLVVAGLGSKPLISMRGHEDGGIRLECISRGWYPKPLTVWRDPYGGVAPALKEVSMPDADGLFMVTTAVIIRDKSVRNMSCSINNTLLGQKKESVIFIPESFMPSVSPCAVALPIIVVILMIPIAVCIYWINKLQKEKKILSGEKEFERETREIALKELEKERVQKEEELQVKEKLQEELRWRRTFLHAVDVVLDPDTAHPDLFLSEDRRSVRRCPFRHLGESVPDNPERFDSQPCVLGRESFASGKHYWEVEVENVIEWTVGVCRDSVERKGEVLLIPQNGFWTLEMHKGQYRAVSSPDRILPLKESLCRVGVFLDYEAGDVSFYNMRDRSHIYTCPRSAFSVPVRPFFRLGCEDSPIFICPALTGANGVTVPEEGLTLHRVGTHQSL

B1: FAM-FLAG (receptor, not shown: small tags and cut ends)
chain: FYFSISCPSGKQCQQALLSGNDILLYCNSSGAHWYYLFTQGKKGRLTSLTNISNMEIMPEGSLLIKDPLPSQTGLYHCWNKNGRQVVQYEIDFQDVTTLHITHKDLGQRPLQNETLHLGSKQLIFTWWEPWQDCNRCEEPGECKRLGYRYIEEPLEEAMPCWLYLGEVLVWSSRLRPELQVEACHVQCTNNTQLRVDYVIFDNFRLDEKTEFVWLDCPLGSMYRPVNWRANDTPLTWESQLSGQDFTTFLDPSTGGRQLQVFQPAVYKCFVQQELVAQFKPAASLETLEAQWRENDAQWREARKALRGRADSVLKGLKLVLLVVTVLALLGALLKCIHPSPGRRSTQVLVVK
binding: binds

— US20220119490A1
